According to PubChem BioAssay AID540303 (National Center for Advancing Translational Sciences (NCATS), 2011):
“And” between values parts separate entries of the source, which are not always exact repeats. Equal entries are not always repeated. Screen size: about 330,000 compounds; about 1,000 (0.3%) were called active. The inconclusive results got no clear call from the source; some entries with a clear call stand among them for comparison. Calls come from the whole dose curve; as a rule, active = well fitted inhibition curve with a large enough effect; inconclusive = small, poorly fitted or top-dose-only effect; inactive = no such curve, though single readings can be large or run the other way; tested in mouse RAW 264.7 cells. Where the call is inconclusive, the potency comes from a doubtful curve fit.

assay: qHTS for Inhibitors of Cell Surface uPA Generation; conditions: cell surface uPA generation assay; series mostly up to 38.3 µM; activity change, negative = inhibition: at the top concentration; note: nearly all actives have a fitted effect of over 55% in size
Outline: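 ATP-Lite luminescence in RAW 264.7 cells after 24 h of exposure to compound, tested up to 38.3 uM final in 1:5 steps. Raised ATP reflects inhibition of uPA-dependent LF delivery to the cytoplasm.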
% is set by controls: 0 for no effect and ±100 for the full control effect; potency is the fitted concentration of half-maximal effect.

Structure (SMILES)	Potency	activity change, negative = inhibition
Cc1ccc(-n2ncc3c(N4CCCC(C)C4)ncnc32)c(C)c1 (configuration not stated)	inconclusive: 12.6 µM [inhibitor, single point]	–
O=C(Nc1ccccc1N1CCCC1)c1cc(Cl)ccc1Cl	inconclusive: 22.4 µM [inhibitor, partial curve, poor fit]	–
N=c1ccn(CC(=O)c2ccc(-c3ccccc3)cc2)cc1	inconclusive: 11.2 µM [inhibitor, single point]	–
Cc1cccnc1NC(=O)Nc1ccc(Cl)cc1	inconclusive: 3.55 µM [inhibitor, partial curve, poor fit]	–
COc1ccc(-c2csc3ncnc(N4CCN(c5ccccc5O)CC4)c23)cc1	–	inactive: 11.7%
COC(=O)CSc1cc(C)nc2ccc(OC)cc12	–	inactive: 2.66%
O=C(Cn1cc(C(F)(F)F)cc(Cl)c1=O)Nc1ccc(N2CCOCC2)cc1	–	inactive: 1.6%
CC1(NC(=O)CC(c2ccccc2)(c2ccccc2)c2ccccc2)CCN(Cc2ccc(-c3ccccc3)cc2)C1=O (configuration not stated)	inconclusive: 12.6 µM [inhibitor, single point]	–
COc1ccc(C(CNC(=O)c2ccc(S(=O)(=O)Nc3ccccc3OC)cc2)N2CCCC2)cc1 (configuration not stated)	inconclusive: 5.01 µM [inhibitor, partial curve, poor fit]	–
O=C(NCc1cccc(Cl)c1)C1=CC=CN2CCS(=O)(=O)N=C12	inconclusive: 0.501 µM [inhibitor, full curve, poor fit]	–
COc1cc(C2Oc3ccccc3C=C2[N+](=O)[O-])cc(OC)c1OC (configuration not stated)	inconclusive: 1 µM [inhibitor, full curve, poor fit]	–
COc1ccc(NC(=O)c2ccc3c(c2)OCO3)cc1	inconclusive: 12.6 µM [inhibitor, partial curve, poor fit]	–
CC(NS(=O)(=O)c1ccc(Cl)cc1)C(=O)OCC(=O)Nc1ccc(N(C)C)cc1 (configuration not stated)	–	inactive: 8%
Cc1ccsc1C(=O)C1CCCN(Cc2cccn2-c2ccc(Cl)cn2)C1 (configuration not stated)	inconclusive: 5.01 µM [inhibitor, partial curve, poor fit]	–
Cc1ccc(NS(=O)(=O)c2ccc(C(=O)OCC(=O)N3CCCCC3)cc2)cc1	inconclusive: 3.16 µM [inhibitor, partial curve, poor fit]	–
CCCCc1nc(N2CCOCC2)c(C#N)c2c1CCCC2	–	inactive: 7.47%
O=S(=O)(c1ccc(Cl)cc1)N1CN(CC2CCCO2)c2nc3ccccc3nc21 (configuration not stated)	–	inactive: -4.28%
COc1cc(NC(=O)c2ccc(C)cc2)ccc1NC(=O)c1cc2ccccc2o1	–	inactive: 12.1%
CCCC(=O)Nc1ccc(-c2csc(-c3cccnc3)n2)cc1	–	inactive: -6.88%
O=C(c1cn(Cc2ccccc2)nc1-c1ccc(Cl)cc1)N1CCN(c2ccccn2)CC1	inconclusive: 12.6 µM [inhibitor, single point]	–
CC(C)Sc1nc2c(c(=O)n1C)SC(C)C2 (configuration not stated)	inconclusive: 12.6 µM [inhibitor, single point]	–
COC(=O)c1ccc(OC)c(Cn2c(=O)n(C)c(=O)c3sccc32)c1	inconclusive: 22.4 µM [inhibitor, single point]	–
COc1ccc(C2COc3cc(O)ccc3C2)c(OC)c1O (configuration not stated)	inconclusive: 28.2 µM [inhibitor, single point]	–

Structure (SMILES)	Potency	activity change, negative = inhibition
Cc1ccc(C2(c3ccccc3)NC(=O)N(CC(=O)NC3CCCCC3)C2=O)cc1C (configuration not stated)	inconclusive: 7.08 µM [inhibitor, partial curve, poor fit]	–
Cc1ccc2nc(SCc3nc4c(cnn4-c4ccccc4)c(=O)[nH]3)[nH]c2c1	–	inactive: 1.05%
CC(=O)Oc1cc2cccc(OC(C)=O)c(=O)c2c(OC(C)=O)c1OC(C)=O	inconclusive: 28.2 µM [inhibitor, single point]	–
COc1ccc(C2SCC(=O)N2CCc2ccc(OC)c(OC)c2)cc1 (configuration not stated)	inconclusive: 7.08 µM [inhibitor, single point]	–
CCN1CCN(C(=O)c2ccc3c(c2)S(=O)(=O)c2ccccc2C3=O)CC1	inconclusive: 14.1 µM [inhibitor, partial curve, poor fit]	–
CCOc1ccc(NC(=O)c2cccc3ccccc23)cc1	inconclusive: 12.6 µM [inhibitor, partial curve, poor fit]	–
COC(=O)c1cc(COc2ccc3oc(C)c(C(=O)OC)c3c2)c(C)o1	inconclusive: 12.6 µM [inhibitor, single point]	–
CN(C)CCNC(=O)c1cc2c(=O)n(C)c3ccccc3c2n1C	inconclusive: 4.47 µM [inhibitor, partial curve, poor fit]	–
S=C(NCCc1ccccc1)N/N=C/c1cccs1	–	inactive: -19.1%
COc1ccc(OC)c(C2CC(=O)c3c([nH]c(C(=O)OC(C)C)c3C)C2)c1 (configuration not stated)	inconclusive: 2.24 µM [inhibitor, full curve, poor fit]	–
CC(OC(=O)c1ccccc1Nc1ccc(SC(F)F)cc1)C(N)=O (configuration not stated)	–	inactive: -20.5%
CNc1ncc(C(=O)c2ccc(Cl)c(Cl)c2)s1	–	inactive: -4.93%
C/C(=N\NC(=O)c1ccccc1OCc1ccc(F)cc1)c1ccccn1	inconclusive: 3.16 µM [inhibitor, single point]	–
COC(=O)C1=C(C)N(Cc2ccccc2)C(=O)N[C@H]1c1cccs1	inconclusive: 3.55 µM [inhibitor, full curve, poor fit]	–
CCNC(=O)COC(=O)c1cc(-c2ccco2)nc2ccccc12	–	inactive: -0.883%
O=C(Nc1cccc(S(=O)(=O)Nc2ccc(SC(F)F)cc2)c1)C1CCC1	–	inactive: 1.26%
Fc1ccc(-c2nnsc2Sc2ccccn2)cc1	–	inactive: -4.21%
Cc1cc(N/N=C/c2ccc(F)cc2)nc(-n2nc(C)cc2C)n1	–	inactive: -2.59%
O=CN/C=C/c1cc(O)ccc1O	inconclusive: 3.16 µM [inhibitor, full curve]	–
Cc1nc2sccn2c(=O)c1S(=O)(=O)Nc1ccc(N2CCOCC2)c(Cl)c1	inconclusive: 5.62 µM [inhibitor, partial curve, poor fit]	–
CCOC(=O)N1CCN(C(=O)c2cn(C)c3ccc(S(=O)(=O)N4CCOCC4)cc3c2=O)CC1	inconclusive: 10 µM [inhibitor, single point]	–
Cc1ccccc1CN1CCN(C(=O)c2ccc(S(=O)(=O)NCc3ccco3)cc2)CC1	inconclusive: 11.2 µM [inhibitor, partial curve, poor fit]	–
COc1ccc(CNC(=O)c2cc(C3CC3)nc3c2cnn3C(C)C)cc1	inconclusive: 12.6 µM [inhibitor, single point]	–

As entered above.
Potency with COC(=O)C1=C(C)N(Cc2ccccc2)C(=O)N[C@H]1c1cccs1 reads inconclusive: 3.55 µM [inhibitor, full curve, poor fit]
Potency with Cc1ccccc1CN1CCN(C(=O)c2ccc(S(=O)(=O)NCc3ccco3)cc2)CC1 reads inconclusive: 11.2 µM [inhibitor, partial curve, poor fit]
activity change, negative = inhibition with CC(OC(=O)c1ccccc1Nc1ccc(SC(F)F)cc1)C(N)=O (configuration not stated) reads inactive: -20.5%
Potency with C/C(=N\NC(=O)c1ccccc1OCc1ccc(F)cc1)c1ccccn1 reads inconclusive: 3.16 µM [inhibitor, single point]

Following part:

Structure (SMILES)	Potency	activity change, negative = inhibition
CCOC(=O)C1Nc2c(F)cc(C)cc2C2c3ccccc3CC12 (configuration not stated)	inconclusive: 10 µM [inhibitor, partial curve, poor fit]	–
CCCNC(=O)NC1CCCc2ccccc21 (configuration not stated)	inconclusive: 1 µM [inhibitor, full curve, poor fit]	–
CC(C)Oc1ccccc1NC(=O)CSc1nc2ccccc2c(=O)n1C	inconclusive: 15.8 µM [inhibitor, single point]	–
CCOC(=O)/C=C/C(=O)Nc1ccc(S(=O)(=O)Nc2c(C)cc(C)cc2C)cc1	inconclusive: 1.26 µM [inhibitor, partial curve, poor fit]	–
CN(Cc1ccco1)C(=O)CCc1nc2sc3c(c2c(=O)[nH]1)CCCC3	inconclusive: 6.31 µM [inhibitor, single point]	–
Cc1cccc(NC(=O)C2c3ccccc3Oc3ccccc32)n1	inconclusive: 5.01 µM [inhibitor, partial curve, poor fit]	–
Fc1ccc([C@@H]2CCNC[C@H]2COc2ccc3c(c2)OCO3)cc1	inconclusive: 12.6 µM [inhibitor, single point] and inconclusive: 3.98 µM [inhibitor, partial curve, poor fit] and inconclusive: 7.08 µM [inhibitor, single point]	–
C#CCOCCOCCOCCNc1nc(N2CCN(C(=O)CCCCCCCCCCNC(=O)[C@H](CCCCN)n3cc(C)nn3)CC2)nc(N2CCN(C(=O)CCCCCCCCCCNC(=O)[C@H](CO)n3cc(CCCSC)nn3)CC2)n1	inconclusive: 11.2 µM [inhibitor, single point]	–
COc1ccc(C(=O)N2CCN(Cc3nc(CC4CC4)no3)CC2)cc1	inconclusive: 0.0089 µM [inhibitor, full curve, poor fit]	–
CCOC(=O)c1cc2c(nc1N)CC(C)(C)OC2	–	inactive: -0.745%
CCC(=O)Nc1ccc(SC#N)cc1C	inconclusive: 7.94 µM [inhibitor, single point]	–
CCOC(=O)c1sc(=S)n(CC)c1N	–	inactive: -2.34%
O=C(CN1CCN(c2ccc(O)cc2)CC1)Nc1ccc2c(c1)OCCCO2	inconclusive: 12.6 µM [inhibitor, single point]	–
CN(C)CCNC(=O)c1ccc(Cl)c2cc3ccccc3nc12	–	inactive: -9.97%
N#CCCCC#Cc1ccc2c(c1)COc1c3ccccc3nn1-2	active: 10 µM	–
CC1C(=O)N2CCCc3cc(NC(=O)c4ccccc4Br)cc1c32 (configuration not stated)	inconclusive: 0.631 µM [inhibitor, partial curve, poor fit]	–
CN(C)C1=NCC(CSC(=N)N)S1 (configuration not stated)	inconclusive: 11.2 µM [inhibitor, single point]	–
Brc1ccc(-c2nnc(-c3ccccc3Br)o2)cc1	–	inactive: -7.61%
N#C/C(=C/c1ccc(O)c(O)c1)c1nc2ccccc2[nH]1	inconclusive: 3.55 µM [inhibitor, single point]	–
CCc1ccccc1NC(=O)CN1CCN(C(=O)CNC(=O)c2ccc(-c3ccccc3)cc2)CC1	active: 3.16 µM	–
Cc1ccc(-c2cnc3cc(C)nn3c2)cc1	–	inactive: -11.9%
